No constants are given. Whether binding was seen depends on the method and setting. Some binding calls cover weakened binding; strength is not graded here.
Target: Sphingomonas paucimobilis serine palmitoyltransferase, wild type (Sphingomonas paucimobilis) (UniProt Q93UV0)
Test: SEC; size exclusion chromatography of the purified enzymes; data not shown; both purified

B1: Sphingomonas paucimobilis serine palmitoyltransferase, wild type (enzyme, UniProt Q93UV0 1-420)
chain: MTEAAAQPHALPADAPDIAPERDLLSKFDGLIAERQKLLDSGVTDPFAIVMEQVKSPTEAVIRGKDTILLGTYNYMGMTFDPDVIAAGKEALEKFGSGTNGSRMLNGTFHDHMEVEQALRDFYGTTGAIVFSTGYMANLGIISTLAGKGEYVILDADSHASIYDGCQQGNAEIVRFRHNSVEDLDKRLGRLPKEPAKLVVLEGVYSMLGDIAPLKEMVAVAKKHGAMVLVDEAHSMGFFGPNGRGVYEAQGLEGQIDFVVGTFSKSVGTVGGFVVSNHPKFEAVRLACRPYIFTASLPPSVVATATTSIRKLMTAHEKRERLWSNARALHGGLKAMGFRLGTETCDSAIVAVMLEDQEQAAMMWQALLDGGLYVNMARPPATPAGTFLLRCSICAEHTPAQIQTVLGMFQAAGRAVGVIG
modifications: PLP cofactor covalently bound as an imine (internal aldimine) to Lys265
- binding: binds

From article PMC3794620, “The Pyridoxal 5′-Phosphate (PLP)-Dependent Enzyme Serine Palmitoyltransferase (SPT): Effects of the Small Subunits and Insights from Bacterial Mimics of Human hLCB2a HSAN1 Mutations” (BioMed Research International, 2013)
